Test results published in the supplement of paper PMC11006884.
The entries are a selection whose mix differs from that of the whole data set.

The chains behind the UniProt entries cited, without tags or fusion partners. Where a name states a change or a piece, a line headed by the entry shows the natural chain unless it says otherwise.
UniProt P28290: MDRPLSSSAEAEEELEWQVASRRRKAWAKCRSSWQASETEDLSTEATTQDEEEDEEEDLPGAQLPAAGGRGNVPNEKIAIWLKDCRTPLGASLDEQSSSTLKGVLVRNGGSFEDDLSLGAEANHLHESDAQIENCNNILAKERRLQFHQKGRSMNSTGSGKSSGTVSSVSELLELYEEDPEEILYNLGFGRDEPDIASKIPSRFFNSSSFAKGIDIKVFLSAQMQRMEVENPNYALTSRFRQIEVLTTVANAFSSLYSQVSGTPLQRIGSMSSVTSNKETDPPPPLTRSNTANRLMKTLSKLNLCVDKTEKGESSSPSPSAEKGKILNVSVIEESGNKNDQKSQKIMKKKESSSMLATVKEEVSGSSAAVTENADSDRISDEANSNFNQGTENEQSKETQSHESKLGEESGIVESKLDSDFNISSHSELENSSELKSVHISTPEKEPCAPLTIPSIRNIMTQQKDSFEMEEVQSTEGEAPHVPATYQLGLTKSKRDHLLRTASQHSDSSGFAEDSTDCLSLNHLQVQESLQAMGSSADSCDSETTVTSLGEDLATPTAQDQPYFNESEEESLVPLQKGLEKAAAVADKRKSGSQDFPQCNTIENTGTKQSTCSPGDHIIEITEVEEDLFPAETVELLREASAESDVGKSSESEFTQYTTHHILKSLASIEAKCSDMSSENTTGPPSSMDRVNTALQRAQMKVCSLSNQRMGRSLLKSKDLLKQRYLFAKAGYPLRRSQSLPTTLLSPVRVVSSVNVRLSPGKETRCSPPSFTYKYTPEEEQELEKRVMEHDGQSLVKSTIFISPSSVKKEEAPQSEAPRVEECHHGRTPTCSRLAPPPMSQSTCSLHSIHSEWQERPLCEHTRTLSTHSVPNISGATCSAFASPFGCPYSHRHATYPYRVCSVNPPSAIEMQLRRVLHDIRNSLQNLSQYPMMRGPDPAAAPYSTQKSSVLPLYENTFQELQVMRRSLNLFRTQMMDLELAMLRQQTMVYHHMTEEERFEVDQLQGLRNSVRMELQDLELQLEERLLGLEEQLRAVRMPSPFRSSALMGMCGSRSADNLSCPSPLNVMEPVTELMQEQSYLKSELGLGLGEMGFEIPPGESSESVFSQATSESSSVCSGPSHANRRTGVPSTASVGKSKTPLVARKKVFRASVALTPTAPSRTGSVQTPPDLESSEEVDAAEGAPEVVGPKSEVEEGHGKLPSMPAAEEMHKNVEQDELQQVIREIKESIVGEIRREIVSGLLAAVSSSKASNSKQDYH
UniProt P29401: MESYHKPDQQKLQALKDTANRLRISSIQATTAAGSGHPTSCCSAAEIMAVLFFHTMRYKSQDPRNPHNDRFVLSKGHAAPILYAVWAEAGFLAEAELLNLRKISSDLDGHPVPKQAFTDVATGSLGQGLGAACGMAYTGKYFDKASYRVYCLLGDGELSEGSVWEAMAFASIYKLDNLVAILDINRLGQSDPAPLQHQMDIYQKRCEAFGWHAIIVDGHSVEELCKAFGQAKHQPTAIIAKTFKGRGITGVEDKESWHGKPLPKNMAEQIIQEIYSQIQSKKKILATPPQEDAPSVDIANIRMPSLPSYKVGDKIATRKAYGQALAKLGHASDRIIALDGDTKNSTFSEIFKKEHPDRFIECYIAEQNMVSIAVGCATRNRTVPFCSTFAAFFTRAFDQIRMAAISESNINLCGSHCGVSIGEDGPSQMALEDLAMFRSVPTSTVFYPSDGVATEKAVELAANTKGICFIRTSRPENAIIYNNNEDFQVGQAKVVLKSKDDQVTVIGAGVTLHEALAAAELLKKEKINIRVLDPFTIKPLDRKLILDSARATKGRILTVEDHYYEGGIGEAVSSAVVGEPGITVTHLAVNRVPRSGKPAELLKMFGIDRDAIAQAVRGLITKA
UniProt P22234: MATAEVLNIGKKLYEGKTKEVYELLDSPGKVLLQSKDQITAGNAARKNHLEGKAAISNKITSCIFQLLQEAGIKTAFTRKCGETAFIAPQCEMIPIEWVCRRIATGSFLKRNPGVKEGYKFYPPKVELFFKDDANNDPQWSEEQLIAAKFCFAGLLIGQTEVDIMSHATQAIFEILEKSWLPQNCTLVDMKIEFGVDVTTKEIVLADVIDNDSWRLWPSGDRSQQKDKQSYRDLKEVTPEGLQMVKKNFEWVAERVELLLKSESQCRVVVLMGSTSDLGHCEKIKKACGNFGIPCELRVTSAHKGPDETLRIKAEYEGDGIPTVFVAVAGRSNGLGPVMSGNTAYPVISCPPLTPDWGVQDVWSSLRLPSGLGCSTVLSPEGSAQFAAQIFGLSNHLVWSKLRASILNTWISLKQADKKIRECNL
UniProt P21333, whole entry, looked up: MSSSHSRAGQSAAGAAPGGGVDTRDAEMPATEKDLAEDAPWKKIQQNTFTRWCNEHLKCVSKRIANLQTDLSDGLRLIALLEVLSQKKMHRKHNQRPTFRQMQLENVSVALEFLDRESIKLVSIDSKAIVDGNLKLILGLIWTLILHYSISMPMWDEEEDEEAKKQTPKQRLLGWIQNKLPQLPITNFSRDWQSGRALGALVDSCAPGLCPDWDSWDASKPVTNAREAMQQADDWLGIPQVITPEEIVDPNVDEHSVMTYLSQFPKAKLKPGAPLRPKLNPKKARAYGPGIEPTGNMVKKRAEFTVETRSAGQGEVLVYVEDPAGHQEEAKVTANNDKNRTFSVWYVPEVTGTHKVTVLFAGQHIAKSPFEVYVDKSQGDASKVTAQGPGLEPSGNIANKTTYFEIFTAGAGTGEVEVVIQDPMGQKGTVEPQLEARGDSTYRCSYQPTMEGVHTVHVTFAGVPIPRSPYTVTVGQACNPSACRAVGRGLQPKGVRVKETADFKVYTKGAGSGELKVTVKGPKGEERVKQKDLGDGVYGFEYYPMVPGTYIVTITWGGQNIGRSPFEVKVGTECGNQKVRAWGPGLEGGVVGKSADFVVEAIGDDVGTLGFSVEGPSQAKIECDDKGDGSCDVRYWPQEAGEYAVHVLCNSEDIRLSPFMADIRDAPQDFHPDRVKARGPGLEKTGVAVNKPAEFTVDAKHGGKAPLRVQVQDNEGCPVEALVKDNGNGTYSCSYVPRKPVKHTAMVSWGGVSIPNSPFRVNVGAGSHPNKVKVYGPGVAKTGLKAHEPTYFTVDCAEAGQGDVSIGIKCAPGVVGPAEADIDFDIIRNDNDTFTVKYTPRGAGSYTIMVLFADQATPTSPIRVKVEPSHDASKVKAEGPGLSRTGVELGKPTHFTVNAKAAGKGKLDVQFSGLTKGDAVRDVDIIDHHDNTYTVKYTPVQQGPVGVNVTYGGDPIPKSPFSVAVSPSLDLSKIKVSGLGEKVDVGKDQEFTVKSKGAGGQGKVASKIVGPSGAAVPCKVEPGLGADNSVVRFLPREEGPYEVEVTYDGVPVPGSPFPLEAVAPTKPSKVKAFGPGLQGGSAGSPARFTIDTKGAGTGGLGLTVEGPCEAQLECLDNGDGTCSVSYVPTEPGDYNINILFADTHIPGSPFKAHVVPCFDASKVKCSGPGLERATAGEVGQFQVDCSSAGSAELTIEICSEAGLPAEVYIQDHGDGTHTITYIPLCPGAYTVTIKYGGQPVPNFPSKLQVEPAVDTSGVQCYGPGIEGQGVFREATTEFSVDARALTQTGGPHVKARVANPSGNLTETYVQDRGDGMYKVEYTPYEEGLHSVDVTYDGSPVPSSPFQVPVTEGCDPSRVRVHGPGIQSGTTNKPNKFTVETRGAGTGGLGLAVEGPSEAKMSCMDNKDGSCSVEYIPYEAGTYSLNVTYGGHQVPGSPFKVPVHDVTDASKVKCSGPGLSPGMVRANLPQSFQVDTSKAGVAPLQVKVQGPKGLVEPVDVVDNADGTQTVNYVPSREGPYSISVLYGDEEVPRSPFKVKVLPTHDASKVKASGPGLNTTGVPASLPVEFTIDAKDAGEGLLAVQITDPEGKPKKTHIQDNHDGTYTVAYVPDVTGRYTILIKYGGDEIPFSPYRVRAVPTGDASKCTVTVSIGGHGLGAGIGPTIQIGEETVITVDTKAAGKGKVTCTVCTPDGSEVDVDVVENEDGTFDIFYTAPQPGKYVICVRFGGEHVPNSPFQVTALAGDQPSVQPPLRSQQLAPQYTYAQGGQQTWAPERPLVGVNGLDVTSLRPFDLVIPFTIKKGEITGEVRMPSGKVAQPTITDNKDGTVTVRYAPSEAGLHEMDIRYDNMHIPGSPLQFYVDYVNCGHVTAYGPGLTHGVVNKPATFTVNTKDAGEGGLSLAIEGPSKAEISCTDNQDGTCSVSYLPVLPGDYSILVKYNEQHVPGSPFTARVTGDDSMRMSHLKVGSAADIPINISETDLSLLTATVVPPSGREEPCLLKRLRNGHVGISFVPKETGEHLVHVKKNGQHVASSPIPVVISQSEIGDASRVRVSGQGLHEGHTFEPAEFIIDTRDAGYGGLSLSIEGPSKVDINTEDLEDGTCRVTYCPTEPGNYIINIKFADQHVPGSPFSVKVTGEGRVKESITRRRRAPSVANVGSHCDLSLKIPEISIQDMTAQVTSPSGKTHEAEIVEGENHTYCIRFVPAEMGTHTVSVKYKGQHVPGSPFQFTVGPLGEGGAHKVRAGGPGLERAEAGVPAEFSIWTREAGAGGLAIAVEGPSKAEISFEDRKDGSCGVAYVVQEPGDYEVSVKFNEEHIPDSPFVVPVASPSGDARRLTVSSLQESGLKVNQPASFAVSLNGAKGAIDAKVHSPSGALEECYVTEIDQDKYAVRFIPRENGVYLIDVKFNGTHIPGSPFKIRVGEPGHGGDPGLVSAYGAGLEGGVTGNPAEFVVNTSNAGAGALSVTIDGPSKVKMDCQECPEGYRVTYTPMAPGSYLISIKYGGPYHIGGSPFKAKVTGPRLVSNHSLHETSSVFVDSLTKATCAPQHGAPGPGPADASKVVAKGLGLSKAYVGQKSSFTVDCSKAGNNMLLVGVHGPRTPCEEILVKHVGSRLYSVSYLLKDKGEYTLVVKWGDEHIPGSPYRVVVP
UniProt P22102: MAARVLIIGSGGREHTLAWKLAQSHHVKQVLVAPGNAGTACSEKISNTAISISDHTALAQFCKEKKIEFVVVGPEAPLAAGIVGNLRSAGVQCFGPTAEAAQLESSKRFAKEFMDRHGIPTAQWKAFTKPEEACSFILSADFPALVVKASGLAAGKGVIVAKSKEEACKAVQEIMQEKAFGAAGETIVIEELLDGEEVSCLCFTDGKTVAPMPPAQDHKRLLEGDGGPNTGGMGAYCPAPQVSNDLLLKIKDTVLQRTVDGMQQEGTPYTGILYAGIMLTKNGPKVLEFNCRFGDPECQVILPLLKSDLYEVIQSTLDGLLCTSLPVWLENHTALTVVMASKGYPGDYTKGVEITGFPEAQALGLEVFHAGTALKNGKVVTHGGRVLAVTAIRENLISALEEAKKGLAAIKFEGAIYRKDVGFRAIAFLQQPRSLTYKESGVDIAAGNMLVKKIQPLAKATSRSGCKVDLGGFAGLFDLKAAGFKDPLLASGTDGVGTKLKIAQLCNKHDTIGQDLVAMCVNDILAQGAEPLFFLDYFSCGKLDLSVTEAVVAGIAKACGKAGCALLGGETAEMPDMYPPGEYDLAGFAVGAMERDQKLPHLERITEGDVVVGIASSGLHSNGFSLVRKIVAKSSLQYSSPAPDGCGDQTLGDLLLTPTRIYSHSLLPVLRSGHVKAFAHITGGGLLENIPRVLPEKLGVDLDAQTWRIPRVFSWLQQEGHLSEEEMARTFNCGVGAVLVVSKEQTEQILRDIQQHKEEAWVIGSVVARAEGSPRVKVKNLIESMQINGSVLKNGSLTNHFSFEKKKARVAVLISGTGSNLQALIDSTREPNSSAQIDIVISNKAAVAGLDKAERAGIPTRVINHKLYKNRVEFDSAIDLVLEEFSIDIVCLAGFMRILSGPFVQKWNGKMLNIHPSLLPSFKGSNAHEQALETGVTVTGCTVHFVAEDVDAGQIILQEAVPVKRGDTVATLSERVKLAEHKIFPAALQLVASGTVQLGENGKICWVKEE
UniProt P30044: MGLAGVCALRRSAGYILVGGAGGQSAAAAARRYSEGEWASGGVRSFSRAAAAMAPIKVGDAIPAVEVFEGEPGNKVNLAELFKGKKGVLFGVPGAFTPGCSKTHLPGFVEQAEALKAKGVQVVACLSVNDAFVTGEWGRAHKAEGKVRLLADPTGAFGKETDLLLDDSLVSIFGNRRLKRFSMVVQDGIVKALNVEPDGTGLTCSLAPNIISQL
UniProt P27695, whole entry, looked up: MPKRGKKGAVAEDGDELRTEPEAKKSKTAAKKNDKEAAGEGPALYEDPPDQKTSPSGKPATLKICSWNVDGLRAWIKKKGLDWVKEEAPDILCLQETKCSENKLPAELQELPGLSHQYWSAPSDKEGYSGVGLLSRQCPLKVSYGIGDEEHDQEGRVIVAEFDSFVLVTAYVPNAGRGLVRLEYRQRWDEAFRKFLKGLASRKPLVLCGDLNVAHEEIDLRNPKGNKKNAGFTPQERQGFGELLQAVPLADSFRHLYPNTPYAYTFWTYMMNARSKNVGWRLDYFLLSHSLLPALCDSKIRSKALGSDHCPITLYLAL

What follows are targets tested with COC(=O)C#Cc1ccccc1 [methyl 3-phenylpropiolate] (assay: log2 ratio of iodoacetamide-alkyne labeling of the cysteine site, DMSO over compound (competition); higher = stronger covalent engagement of the cysteine by the compound, active = 1 or more). Details: 500 µM; treatment time 1 h; system: HEK293T cell lysate.
Method in brief: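 Three replicates, each with duplicate channels, were prepared from HEK293T lysate (2 mg/mL) treated with vehicle or electrophile at 500 µM for 1 h at ambient temperature. Iodoacetamide alkyne was then applied for 1 h, and samples were clicked to sCIP-TMT reagents, pooled, trypsin-digested overnight at 37 °C, enriched on streptavidin, acid-eluted and analysed on Orbitrap Eclipse LC-MS/MS with FAIMS, with FragPipe quantification. The log2 competition ratio per cysteine is the mean control-channel divided by the mean compound-channel reporter intensity. Cysteines quantified in only one replicate were left out.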

Target	log2 ratio of iodoacetamide-alkyne labeling
RPL10 C71 (UniProt P27635)	inactive: 0.561
ERP29 C157 (UniProt P30040)	inactive: -0.0314
UniProt P28290_C901	inactive: 0.884
TKT C225 (UniProt P29401)	inactive: -0.0938
PAICS C374 (UniProt P22234)	inactive: -0.119
ABCD3 C477 (UniProt P28288)	inactive: 0.697
FLNA C2199 (UniProt P21333)	inactive: 0.0103
GART C298 (UniProt P22102)	inactive: 0.0594
RPL17 C57 (UniProt P18621)	inactive: 0.53
SFPQ C297 (UniProt P23246)	inactive: -0.122
RPL12 C162 (UniProt P30050)	inactive: 0.191
PFKL C170 (UniProt P17858)	inactive: 0.343
ATP6V1B2 C162 (UniProt P21281)	inactive: 0.0743
DNMT1 C751 (UniProt P26358)	inactive: 0.299
FECH C411 (UniProt P22830)	inactive: 0.319
NCL C543 (UniProt P19338)	inactive: 0.323
PML C57 (UniProt P29590)	inactive: 0.184
PFKL C708 (UniProt P17858)	inactive: 0.221
RPS3 C134 (UniProt P23396)	inactive: -0.271

Target	log2 ratio of iodoacetamide-alkyne labeling
PRDX5 C204 (UniProt P30044)	inactive: 0.322
FLNA C1018 (UniProt P21333)	inactive: 0.0782
CSRP1 C122 (UniProt P21291)	inactive: -0.0432
CSRP1 C167 (UniProt P21291)	inactive: 0.124
VARS C340 (UniProt P26640)	inactive: 0.192
FLNA C1260 (UniProt P21333)	inactive: 0.497
UniProt P23610_C62	inactive: 0.0767
UniProt P22413_C807	inactive: 0.133
ECHS1 C225 (UniProt P30084)	inactive: -0.0625
DNMT1 C580 (UniProt P26358)	inactive: 0.279
OSBP C224 (UniProt P22059)	inactive: -0.138
APC C1387 (UniProt P25054)	inactive: 0.256
YWHAQ C94 (UniProt P27348)	inactive: 0.0617
ACAT1 C142 (UniProt P24752)	inactive: -0.0833
APEX1 C99 (UniProt P27695)	inactive: 0.0226
TCP1 C147 (UniProt P17987)	inactive: 0.482
VARS C682 (UniProt P26640)	inactive: 0.0372
ACAT1 C126 (UniProt P24752)	inactive: 0.42

Reprinted from the listing (three entries):
Target	log2 ratio of iodoacetamide-alkyne labeling
FLNA C1260 (UniProt P21333)	inactive: 0.497
UniProt P23610_C62	inactive: 0.0767
UniProt P22413_C807	inactive: 0.133
